This experiment concerns the target EGFP-afadin (rat l-afadin, amino acids 1-1828) (rat) (UniProt O35889). In words: co-IP.

By UniProt entry, the sequences of proteins in these tests, tags left out.
UniProt O35889: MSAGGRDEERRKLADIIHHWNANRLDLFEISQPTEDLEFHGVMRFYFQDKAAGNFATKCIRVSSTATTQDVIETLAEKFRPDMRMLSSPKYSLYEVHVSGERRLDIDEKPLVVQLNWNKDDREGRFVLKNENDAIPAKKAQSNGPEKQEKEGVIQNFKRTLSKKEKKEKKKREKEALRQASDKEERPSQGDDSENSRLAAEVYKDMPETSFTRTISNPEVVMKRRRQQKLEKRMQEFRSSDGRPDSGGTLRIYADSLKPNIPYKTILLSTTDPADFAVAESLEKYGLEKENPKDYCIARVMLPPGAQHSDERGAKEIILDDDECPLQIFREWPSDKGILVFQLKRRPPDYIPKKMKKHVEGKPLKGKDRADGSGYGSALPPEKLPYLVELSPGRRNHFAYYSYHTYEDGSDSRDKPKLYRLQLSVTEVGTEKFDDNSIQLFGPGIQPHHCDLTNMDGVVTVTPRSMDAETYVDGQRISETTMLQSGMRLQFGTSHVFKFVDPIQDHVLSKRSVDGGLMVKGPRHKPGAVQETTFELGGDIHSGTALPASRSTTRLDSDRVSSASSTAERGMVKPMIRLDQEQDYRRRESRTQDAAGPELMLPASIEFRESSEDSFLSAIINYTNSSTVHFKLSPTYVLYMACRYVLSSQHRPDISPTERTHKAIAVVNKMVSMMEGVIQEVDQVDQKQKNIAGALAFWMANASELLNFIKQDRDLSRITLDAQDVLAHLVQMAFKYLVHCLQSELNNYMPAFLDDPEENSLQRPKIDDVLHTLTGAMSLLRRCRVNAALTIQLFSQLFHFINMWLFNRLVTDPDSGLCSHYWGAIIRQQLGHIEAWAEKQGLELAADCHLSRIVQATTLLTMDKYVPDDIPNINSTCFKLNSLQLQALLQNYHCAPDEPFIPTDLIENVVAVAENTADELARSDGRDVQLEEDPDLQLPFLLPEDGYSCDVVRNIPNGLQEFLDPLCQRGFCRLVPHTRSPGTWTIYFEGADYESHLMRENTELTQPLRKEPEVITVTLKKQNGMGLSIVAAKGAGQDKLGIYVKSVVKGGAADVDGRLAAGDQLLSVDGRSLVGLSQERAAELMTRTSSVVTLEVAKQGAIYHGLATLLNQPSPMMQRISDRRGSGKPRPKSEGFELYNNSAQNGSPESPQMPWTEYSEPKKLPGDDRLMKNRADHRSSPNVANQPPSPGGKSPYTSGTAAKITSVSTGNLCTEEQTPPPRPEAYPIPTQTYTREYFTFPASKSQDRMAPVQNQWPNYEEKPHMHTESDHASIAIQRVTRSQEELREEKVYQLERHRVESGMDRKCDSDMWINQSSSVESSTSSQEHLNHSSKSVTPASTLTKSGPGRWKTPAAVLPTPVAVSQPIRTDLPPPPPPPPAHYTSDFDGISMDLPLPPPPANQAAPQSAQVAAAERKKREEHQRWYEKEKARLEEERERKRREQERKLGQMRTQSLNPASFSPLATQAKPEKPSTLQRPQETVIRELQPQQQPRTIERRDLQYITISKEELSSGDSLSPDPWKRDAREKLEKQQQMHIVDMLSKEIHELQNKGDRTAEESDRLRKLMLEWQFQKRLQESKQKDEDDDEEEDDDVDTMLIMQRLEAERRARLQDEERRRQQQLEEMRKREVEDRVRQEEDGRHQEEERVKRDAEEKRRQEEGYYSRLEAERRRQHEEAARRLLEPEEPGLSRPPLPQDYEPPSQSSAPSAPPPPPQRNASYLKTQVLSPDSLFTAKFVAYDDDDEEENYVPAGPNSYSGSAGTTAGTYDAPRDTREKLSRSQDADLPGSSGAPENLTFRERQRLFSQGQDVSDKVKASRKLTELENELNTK
UniProt P35221: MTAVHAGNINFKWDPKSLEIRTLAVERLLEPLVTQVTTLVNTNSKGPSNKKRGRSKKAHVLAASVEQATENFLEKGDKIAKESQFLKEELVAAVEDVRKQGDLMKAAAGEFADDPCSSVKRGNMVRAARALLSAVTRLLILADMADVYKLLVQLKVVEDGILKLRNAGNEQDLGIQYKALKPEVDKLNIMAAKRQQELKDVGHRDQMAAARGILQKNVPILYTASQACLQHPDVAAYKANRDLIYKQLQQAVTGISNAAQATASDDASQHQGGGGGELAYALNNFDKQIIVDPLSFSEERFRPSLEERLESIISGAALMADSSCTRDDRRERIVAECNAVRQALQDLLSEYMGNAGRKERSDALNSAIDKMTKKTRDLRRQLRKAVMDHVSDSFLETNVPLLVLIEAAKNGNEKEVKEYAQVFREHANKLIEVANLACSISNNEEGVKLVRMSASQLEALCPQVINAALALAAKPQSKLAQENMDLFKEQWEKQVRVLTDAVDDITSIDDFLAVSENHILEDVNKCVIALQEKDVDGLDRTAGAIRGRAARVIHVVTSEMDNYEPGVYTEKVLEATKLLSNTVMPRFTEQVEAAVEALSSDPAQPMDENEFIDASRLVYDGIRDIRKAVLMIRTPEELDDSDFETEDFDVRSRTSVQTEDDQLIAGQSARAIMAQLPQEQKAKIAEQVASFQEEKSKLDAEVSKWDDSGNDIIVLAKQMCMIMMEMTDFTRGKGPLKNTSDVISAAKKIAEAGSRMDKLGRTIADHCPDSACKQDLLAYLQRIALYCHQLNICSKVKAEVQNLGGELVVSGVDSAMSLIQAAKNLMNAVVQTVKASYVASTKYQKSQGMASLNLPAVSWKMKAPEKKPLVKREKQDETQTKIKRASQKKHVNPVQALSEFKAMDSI

These are yes or no findings as the source states them, for the method shown. Binding seen in cells or lysates may run through a third protein. Some entries that bind do so weakly or less than the wild type.

As for α-catenin (from UniProt P35221 1-906), the binding entry is on record as “binds”.

These data come from article doi:10.1101/2024.04.26.591237.
